Measured values: the supplement of paper PMC8728848
The list shows a part of the results.

Assays:
Assay in all cases: glycan array binding signal (z-score within array); higher = stronger binding
Settings in all cases: glycan notation: IUPAC condensed, linker removed
[1] = target: Fuc(a1-2)Gal(b1-4)GlcNAc(b1-3)Gal(b1-4)GlcNAc(b1-2)Man(a1-3)[Fuc(a1-2)Gal(b1-4)GlcNAc(b1-3)Gal(b1-4)GlcNAc(b1-2)Man(a1-6)]Man(b1-4)GlcNAc(b1-4)GlcNAc
Summary of the method: (§1)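 Columns mapping to the same glycan were averaged after glycan names were converted to IUPAC-condensed notation. The data come from 3228 arrays in the Consortium for Functional Glycomics database, limited to those with an available protein sequence. Binding is reported as a within-array Z-score averaged across arrays of one protein sequence and across linkers.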

[2] = target: Fuc(a1-2)Gal(b1-4)GlcNAc(b1-3)Gal(b1-4)GlcNAc(b1-3)Gal(b1-4)GlcNAc
Summary of the method: as §1

[3] = target: Fuc(a1-2)Gal(b1-4)GlcNAc(b1-3)GalNAc
Summary of the method: as §1

[4] = target: Fuc(a1-2)Gal(b1-4)GlcNAc(b1-3)[Fuc(a1-2)Gal(b1-4)GlcNAc(b1-6)]GalNAc
Summary of the method: as §1

[5] = target: Fuc(a1-2)Gal(b1-4)GlcNAc(b1-3)[Fuc(a1-3)[Gal(b1-4)]GlcNAc(b1-6)]Gal(b1-4)Glc
Summary of the method: as §1

[6] = target: Fuc(a1-2)Gal(b1-4)GlcNAc(b1-6)GalNAc
Summary of the method: as §1

[7] = target: Fuc(a1-2)Gal(b1-4)GlcNAc6S
Summary of the method: as §1

[8] = target: Fuc(a1-2)Gal(b1-4)[Fuc(a1-3)]GlcNAc
Summary of the method: as §1

[9] = target: Fuc(a1-2)Gal(b1-4)[Fuc(a1-3)]GlcNAc(b1-2)Man(a1-3)[Fuc(a1-2)Gal(b1-4)[Fuc(a1-3)]GlcNAc(b1-2)Man(a1-6)]Man(b1-4)GlcNAc(b1-4)[Fuc(a1-6)]GlcNAc
Summary of the method: as §1

[10] = target: Fuc(a1-2)Gal(b1-4)[Fuc(a1-3)]GlcNAc(b1-2)[Fuc(a1-2)Gal(b1-4)[Fuc(a1-3)]GlcNAc(b1-4)]Man(a1-3)[Fuc(a1-2)Gal(b1-4)[Fuc(a1-3)]GlcNAc(b1-2)Man(a1-6)]Man(b1-4)GlcNAc(b1-4)GlcNAc
Summary of the method: as §1

[11] = target: Fuc(a1-2)Gal(b1-4)[Fuc(a1-3)]GlcNAc(b1-3)Gal(b1-4)[Fuc(a1-3)]GlcNAc
Summary of the method: as §1

[12] = target: Fuc(a1-2)Gal(b1-4)[Fuc(a1-3)]GlcNAc(b1-3)Gal(b1-4)[Fuc(a1-3)]GlcNAc(b1-3)Gal(b1-4)[Fuc(a1-3)]GlcNAc
Summary of the method: as §1

[13] = target: Fuc(a1-2)Gal(b1-4)[Fuc(a1-3)]GlcNAc(b1-3)GalNAc
Summary of the method: as §1

[14] = target: Fuc(a1-2)Gal(b1-4)[Fuc(a1-3)]GlcNAc(b1-3)[Neu5Ac(a2-6)Gal(b1-4)GlcNAc(b1-6)]Gal(b1-4)Glc
Summary of the method: as §1

[15] = target: Fuc(a1-2)Gal3S(b1-4)GlcNAc
Summary of the method: as §1

[16] = target: Fuc(a1-2)Gal6S(b1-3)GlcNAc
Summary of the method: as §1

[17] = target: Fuc(a1-2)Gal6S(b1-3)GlcNAc6S
Summary of the method: as §1

Fuc(a1-2)Gal6S(b1-4)Glc = target: Fuc(a1-2)Gal6S(b1-4)Glc
Summary of the method: as §1

[18] = target: Fuc(a1-2)Gal6S(b1-4)Glc6S
Summary of the method: as §1

Fuc(a1-2)[Gal(a1-3)]Gal = target: Fuc(a1-2)[Gal(a1-3)]Gal
Summary of the method: as §1

[19] = target: Fuc(a1-2)[Gal(a1-3)]Gal(b1-3)GalNAc
Summary of the method: as §1

[20] = target: Fuc(a1-2)[Gal(a1-3)]Gal(b1-3)GalNAc(b1-3)Gal(a1-4)Gal(b1-4)Glc
Summary of the method: as §1

[21] = target: Fuc(a1-2)[Gal(a1-3)]Gal(b1-3)GlcNAc
Summary of the method: as §1

[22] = target: Fuc(a1-2)[Gal(a1-3)]Gal(b1-3)GlcNAc(b1-2)Man(a1-3)[Fuc(a1-2)[Gal(a1-3)]Gal(b1-3)GlcNAc(b1-2)Man(a1-6)]Man(b1-4)GlcNAc(b1-4)GlcNAc
Summary of the method: as §1

[23] = target: Fuc(a1-2)[Gal(a1-3)]Gal(b1-3)GlcNAc(b1-2)Man(a1-3)[Fuc(a1-2)[Gal(a1-3)]Gal(b1-3)GlcNAc(b1-2)Man(a1-6)]Man(b1-4)GlcNAc(b1-4)[Fuc(a1-6)]GlcNAc
Summary of the method: as §1

[24] = target: Fuc(a1-2)[Gal(a1-3)]Gal(b1-3)GlcNAc(b1-3)GalNAc
Summary of the method: as §1

[25] = target: Fuc(a1-2)[Gal(a1-3)]Gal(b1-3)GlcNAc(b1-6)GalNAc
Summary of the method: as §1

[26] = target: Fuc(a1-2)[Gal(a1-3)]Gal(b1-4)Glc
Summary of the method: as §1

[27] = target: Fuc(a1-2)[Gal(a1-3)]Gal(b1-4)GlcNAc
Summary of the method: as §1

[28] = target: Fuc(a1-2)[Gal(a1-3)]Gal(b1-4)GlcNAc(b1-2)Man
Summary of the method: as §1

B1: LlpA (Burkholderia cenocepacia) (protein)
chain: MGSSHHHHHHSSGLVPRGSHKILGSNETLSAGNVVYSDNGQYHLAMQTDGNLVVYGPTGAVWQSQTSGSGGNRAVMQGDGNLVIYRADNTAAWSSKTAHPGAFLAVQDDGNVVIYWPRPAWASNTSDPATQQSAESKYLASGSTMSAGQTVTVAQYMLVFQADGNLVLYKNGGNPIWSTGTQGKGATYAVMQSDGNFVIYAGSTALWSTKTNGANGAQLVLQSDGNLVIYAPTAAWSTKFGLVTAPTSTSTSNNGPGSGICVGVCPPHPLNGNPFSPVGVGTTGLGFPTPGYPGAAF
glycan array binding signal (z-score) [1]: 1.25
glycan array binding signal (z-score) [2]: 0.594
glycan array binding signal (z-score) [3]: 0.926
glycan array binding signal (z-score) [4]: -0.424
glycan array binding signal (z-score) [5]: 1.43
glycan array binding signal (z-score) [6]: -0.461
glycan array binding signal (z-score) [7]: -0.241
glycan array binding signal (z-score) [8]: 0.438
glycan array binding signal (z-score) [9]: -0.684
glycan array binding signal (z-score) [10]: -0.26
glycan array binding signal (z-score) [11]: 0.198
glycan array binding signal (z-score) [12]: -0.322
glycan array binding signal (z-score) [13]: 0.348
glycan array binding signal (z-score) [14]: -0.773
glycan array binding signal (z-score) [15]: -1.76
glycan array binding signal (z-score) [16]: 0.167
glycan array binding signal (z-score) [17]: -0.744
glycan array binding signal (z-score) (Fuc(a1-2)Gal6S(b1-4)Glc): -0.166
glycan array binding signal (z-score) [18]: 0.91
glycan array binding signal (z-score) (Fuc(a1-2)[Gal(a1-3)]Gal): -0.171
glycan array binding signal (z-score) [19]: 0.017
glycan array binding signal (z-score) [20]: -0.361
glycan array binding signal (z-score) [21]: 0.129
glycan array binding signal (z-score) [22]: 0.005
glycan array binding signal (z-score) [23]: -1.07
glycan array binding signal (z-score) [24]: -1.03
glycan array binding signal (z-score) [25]: -1.44
glycan array binding signal (z-score) [26]: -0.011
glycan array binding signal (z-score) [27]: -0.605
glycan array binding signal (z-score) [28]: 0.547
